The list shows only some results of the screen, not a fair sample: it is rich in T/C values a quarter to a half above the control, in often repeated tests (any T/C) and in doses without a T/C. Other doses and runs of a compound stand elsewhere. T/C: endpoint of the treated group in % of that of the vehicle group. Some doses have a count of surviving animals in place of a T/C: the source files T/C as zero there, which appears to mark a toxic dose or a test without result, not a measured value. Some survivor counts are full or nearly so, which does not show that the dose was tolerated: the source hardly ever lists a survival T/C far under the control, and the zero likely stands for such cases as well. Survivors were counted at the toxicity check, usually on the fifth day, unless a day is given; later deaths do not show. Schedule codes are those of the source, taken here to give the interval after Q, in days (D) or hours (H), and the number of doses after X. For survival time, this PubChem deposit counts one and a half times the control or more as active, and values a quarter to a half above the control carry no call in these data; other NCI protocols may use other cut-offs. Some T/C values are followed by the survivors on the day toxicity was checked, most often the fifth; without a count, all were alive then. Some entries were tested several times; the values are given in rising order.
Tested on: BDF1 mice, B16 melanoma ip, median survival T/C
Experiment: NCI In Vivo Anticancer Drug Screen. Data for tumor model B16 Melanoma (intraperitoneal) in B6D2F1 (BDF1) mice
Details: T/C endpoint: median survival time, higher T/C = longer survival
Method in brief: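 Tumor-bearing mice received test compound or vehicle. Survival or tumor size was then measured in both groups. The treated-group figure was divided by the control-group figure.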

[1] = dose: 12.5 mg/kg/injection, schedule: Q01DX009 (ip), vehicle: Klucel (hydroxypropylcellulose) (HPC)
[2] = dose: 200.0 mg/kg/injection, schedule: Q01DX009 (ip), vehicle: saline with Tween-80
[3] = dose: 5.0 mg/kg/injection, schedule: Q01DX009 (ip), vehicle: Klucel (hydroxypropylcellulose) (HPC)
[4] = dose: 50.0 mg/kg/injection, schedule: Q01DX009 (ip), vehicle: Klucel (hydroxypropylcellulose) (HPC)
[5] = dose: 100.0 mg/kg/injection, schedule: Q01DX009 (ip), vehicle: Klucel (hydroxypropylcellulose) (HPC)
[6] = dose: 200.0 mg/kg/injection, schedule: Q01DX009 (ip), vehicle: Klucel (hydroxypropylcellulose) (HPC)
[7] = dose: 400.0 mg/kg/injection, schedule: Q01DX009 (ip), vehicle: Klucel (hydroxypropylcellulose) (HPC)
[8] = dose: 50.0 mg/kg/injection, schedule: Q01DX009 (ip), vehicle: saline
[9] = dose: 400.0 mg/kg/injection, schedule: Q01DX009 (ip), vehicle: saline with Tween-80
[10] = dose: 64.0 mg/kg/injection, schedule: Q02DX009 (ip), vehicle: saline
[11] = dose: 100.0 mg/kg/injection, schedule: Q01DX009 (ip), vehicle: saline

Q: What does the source list for COC(=O)C1=C(C)NC(=O)NC1c1ccc(N(CCCl)CCCl)c(OC)c1 (stereo not drawn)?
A: T/C (dose: 1.56 mg/kg/injection, schedule: Q01DX009 (ip), vehicle: saline with Tween-80): 135 % of control; survivor count (dose: 6.25 mg/kg/injection, schedule: Q01DX009 (ip), vehicle: Klucel (hydroxypropylcellulose) (HPC)): 10 of 10; survivor count [1]: 7 of 10; survivor count (dose: 12.5 mg/kg/injection, schedule: Q01DX009 (ip), vehicle: saline with Tween-80): 9 of 10; survivor count (dose: 25.0 mg/kg/injection, schedule: Q01DX009 (ip), vehicle: saline with Tween-80): 8 of 10

Q: For CCCCNC(=O)Nc1c(C)cccc1C, which survivor count (dose: 400.0 mg/kg/injection, schedule: Q01DX009 (ip), vehicle: gum acacia) is on record?
A: 10 of 10

Q: With CCNNC(=O)[C@@H]1[C@H](c2cc(OC)c(OC)c(OC)c2)c2cc3c(cc2[C@H](O)[C@H]1CO)OCO3 as the molecule, how does the survivor count [2] read?
A: 1 of 6

Q: For O=C1C(NCC(O)CO)=C(N2CC2)C(=O)C(NCC(O)CO)=C1N1CC1 (stereo not drawn), which survivor count (dose: 0.5 mg/kg/injection, schedule: Q01DX009 (ip), vehicle: saline) is on record?
A: 9 of 10

Q: Which results are given for c1ccc2c(NCCCCCCNc3c4ccccc4nc4ccccc34)c3ccccc3nc2c1?
A: T/C (dose: 0.62 mg/kg/injection, schedule: Q01DX009 (ip), vehicle: Klucel (hydroxypropylcellulose) (HPC)): 127 % of control [9 of 10 alive]; T/C (dose: 2.5 mg/kg/injection, schedule: Q01DX009 (ip), vehicle: Klucel (hydroxypropylcellulose) (HPC)): 142 % of control; T/C [3]: 143 % of control

Q: Which results are given for CC[C@@]1(O)C(=O)OCc2c1cc1n(c2=O)Cc2cc3ccccc3nc2-1?
A: T/C (dose: 0.2 mg/kg/injection, schedule: Q01DX009 (ip), vehicle: other): 140 % of control; survivor count (dose: 1.57 mg/kg/injection, schedule: Q01DX009 (ip), vehicle: other): 10 of 10; survivor count (dose: 3.13 mg/kg/injection, schedule: Q01DX009 (ip), vehicle: other): 5 of 10; survivor count (dose: 6.25 mg/kg/injection, schedule: Q01DX009 (ip), vehicle: other): 0 of 10

Q: For CCOC(=O)/C(C(C)=O)=C(/O)c1ccc(OC(F)(F)C(F)Cl)cc1OC(F)(F)C(F)Cl.CCOC(=O)/C(C(C)=O)=C(/O)c1ccc(OC(F)(F)C(F)Cl)cc1OC(F)(F)C(F)Cl.[Cu] (stereo not drawn), which survivor count [4] is on record?
A: 10 of 10

Q: And the survivor count [5]?
A: 10 of 10

Q: What about the survivor count [6] of the same molecule?
A: 3 of 10

Q: And the survivor count [7]?
A: 0 of 10

Q: Which survivor count (dose: 200.0 mg/kg/injection, schedule: Q04DX003 (ip), vehicle: saline with Tween-80) does the source give for C/C=C(/C#N)c1ccccc1 here?
A: 1 of 10

Q: For CC(C)n1c(=S)[nH]c2ccccc2c1=O, which T/C (dose: 25.0 mg/kg/injection, schedule: Q01DX009 (ip), vehicle: saline) is on record?
A: 130 % of control

Q: And the survivor count [8]?
A: 9 of 10

Q: What about the survivor count [2] of the same molecule?
A: 6 of 6

Q: What about the survivor count [7] of the same molecule?
A: 8 of 10

Q: And the survivor count [9]?
A: 6 of 6

Q: For CC(NC(=O)C(F)(F)F)C(=O)O (stereo not drawn), which survivor count (dose: 400.0 mg/kg/injection, schedule: Q04DX003 (ip), vehicle: saline) is on record?
A: 10 of 10

Q: Which survivor count (dose: 100.0 mg/kg/injection, schedule: Q01DX009 (ip), vehicle: saline with Tween-80) does the source give for CC(Br)C(=O)NC(C)C(=O)O (stereo not drawn) here?
A: 10 of 10

Q: What about the survivor count [2] of the same molecule?
A: 10 of 10

Q: And the survivor count [9]?
A: 10 of 10

Q: How did the survivor count [3] turn out when COc1ccc(Nc2ccnc3cc(Cl)ccc23)cc1CN(CCCl)CCCl was run?
A: 10 of 10

Q: What about the survivor count (dose: 10.0 mg/kg/injection, schedule: Q01DX009 (ip), vehicle: Klucel (hydroxypropylcellulose) (HPC)) of the same molecule?
A: 1 of 10

Q: CCCCn1cnc2c(SC)ncnc21 was tested. Which survivor count [2] did it give?
A: 2 of 10

Q: Which results are given for Cc1ccc(NC(=O)N(CCCl)N=O)cc1C?
A: survivor count [1]: 10 of 10; survivor count (dose: 25.0 mg/kg/injection, schedule: Q01DX009 (ip), vehicle: Klucel (hydroxypropylcellulose) (HPC)): 10 of 10; survivor count [4]: 9 of 10

Q: How did the survivor count (dose: 3.12 mg/kg/injection, schedule: Q01DX009 (ip), vehicle: saline) turn out when CC1CN1P1(N2CC2C)=NP(N2CC2C)(N2CC2C)=NP(N2CC2C)(N2CC2C)=N1 (stereo not drawn) was run?
A: 10 of 10

Q: And the T/C (dose: 8.0 mg/kg/injection, schedule: Q01DX009 (ip), vehicle: saline)?
A: 125 % of control

Q: And the T/C (dose: 16.0 mg/kg/injection, schedule: Q01DX009 (ip), vehicle: saline)?
A: 128 % of control

Q: And the T/C (dose: 32.0 mg/kg/injection, schedule: Q01DX009 (ip), vehicle: saline)?
A: 135 % of control

Q: What about the T/C (dose: 32.0 mg/kg/injection, schedule: Q02DX009 (ip), vehicle: saline) of the same molecule?
A: 125 and 126 % of control [8 of 10 alive]

Q: What about the survivor count [8] of the same molecule?
A: 5 of 10

Q: What about the T/C (dose: 64.0 mg/kg/injection, schedule: Q01DX009 (ip), vehicle: saline) of the same molecule?
A: 130 % of control

Q: What about the T/C [10] of the same molecule?
A: 135 % of control

Q: And the survivor count [10]?
A: 10 of 10

Q: What about the survivor count [11] of the same molecule?
A: 10 of 10

Q: What about the survivor count (dose: 200.0 mg/kg/injection, schedule: Q01DX009 (ip), vehicle: saline) of the same molecule?
A: 0 of 10

Q: What does the source list for CCCCCCCCCCCCCCCCS(=O)(=O)c1ccc(NN)cc1?
A: survivor count [5]: 10 of 10; survivor count [7]: 10 of 10

Q: For CC(=O)CC(=O)Nc1cccc([N+](=O)[O-])c1, which survivor count [4] is on record?
A: 10 of 10

Q: Which survivor count (dose: 200.0 mg/kg/injection, schedule: Q01DX009 (ip), vehicle: water) does the source give for COc1cc2ccc3c[n+](C)ccc3c2cc1OC here?
A: 3 of 10

Q: With O=C(O)c1ccccc1C(=O)Nc1ccc(Cl)cc1 as the molecule, how does the survivor count [9] read?
A: 9 of 10

Q: For Nc1ccc(N=Nc2ccccc2)c(N)c1, which survivor count (dose: 300.0 mg/kg/injection, schedule: Q01DX009 (ip), vehicle: saline with Tween-80) is on record?
A: 8 of 10

Q: What about the survivor count [7] of the same molecule?
A: 10 of 10

Q: What about the survivor count [9] of the same molecule?
A: 4 of 10

Q: With O=C1C=CC(=O)N1Cc1ccco1 as the molecule, how does the T/C (dose: 65.0 mg/kg/injection, schedule: Q01DX009 (ip), vehicle: saline) read?
A: 126 % of control

Q: And the T/C [11]?
A: 127 % of control

Q: How did the survivor count [6] turn out when Cc1cccc(C)c1NS(=O)(=O)c1ccc(Cl)cc1 was run?
A: 9 of 10

Q: What does the source list for CCOC(=O)C1C2OC(=O)C(C(=O)C2CN(CCCl)CCCl)C1C1CC=C(CC2=CCC(C3C4C(=O)OC(C(CN(CCCl)CCCl)C4=O)C3C(=O)OCC)CC2)CC1 (stereo not drawn)?
A: T/C [4]: 140 % of control; survivor count [6]: 10 of 10; survivor count [2]: 8 of 10; survivor count [7]: 10 of 10

Q: With O=C(O)c1cc(-c2ccc(Cl)cc2)nc2c(Cl)cccc12 as the molecule, how does the survivor count [6] read?
A: 9 of 10

Q: And the survivor count [7]?
A: 0 of 10

Reference: PubChem BioAssay AID192 (DTP/NCI, 2004)
